{"source": "the supplement of paper PMC10849652", "note": "This is one part of the list."}
{"compound": "c1ccc([C@@H]2C[C@H]2NC2CCNCC2)cc1", "test": "log2 fold change, soluble protein after heating vs DMSO (PISA); higher = thermal stabilisation; K562 lysate, 10 uM; active = over 0.2 and 3.5 SD of the protein, either way, in both replicates (recomputed)", "in_short": "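Pellets of K562 cells were dounce-homogenised in PBS pH 7.4 with 1 mM MgCl2, and the crude extract was held at 1 mg/mL protein for a 30 min treatment with 10 μM compound. Aliquots were heated for 3 min over 48°C-58°C and pooled before NP-40 was added to 0.5% at 4°C. The supernatant from 21,000xg for 90 min was quantified by TMTpro 16plex LC-MS/MS with channel sums equalised. Values are reported from duplicates as log-two fold change in thermal stability relative to solvent controls.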"}
{"target": "COPS7A (UniProt Q9UBW8)", "log2 fold change": "inactive: -0.007"}
{"target": "COG2 (UniProt Q14746)", "log2 fold change": "inactive: 0.009"}
{"target": "CNOT10 (UniProt Q9H9A5)", "log2 fold change": "inactive: 0.003"}
{"target": "COG8 (UniProt Q96MW5)", "log2 fold change": "inactive: 0.056"}
{"target": "CORO1C isoform 3 (UniProt Q9ULV4)", "log2 fold change": "inactive: -0.014"}
{"target": "COX18 (UniProt Q8N8Q8)", "log2 fold change": "inactive: 0.024"}
{"target": "COX20 isoform 2 (UniProt Q5RI15)", "log2 fold change": "inactive: 0.23"}
{"target": "COIL (UniProt P38432)", "log2 fold change": "inactive: 0.052"}
{"target": "COX6A1 (UniProt P12074)", "log2 fold change": "inactive: -0.048"}
{"target": "COLEC11 isoform 10 (UniProt Q9BWP8)", "log2 fold change": "inactive: -0.022"}
{"target": "COA1 (UniProt Q9GZY4)", "log2 fold change": "inactive: -0.003"}
{"target": "COPS2 isoform 2 (UniProt P61201)", "log2 fold change": "inactive: 0.069"}
{"target": "CPSF7 isoform 3 (UniProt Q8N684)", "log2 fold change": "inactive: 0.045"}
{"target": "COQ7 (UniProt Q99807)", "log2 fold change": "inactive: 0.017"}
{"target": "CNST (UniProt Q6PJW8)", "log2 fold change": "inactive: -0.031"}
{"target": "COX15 (UniProt Q7KZN9)", "log2 fold change": "inactive: -0.089"}
{"target": "COTL1 (UniProt Q14019)", "log2 fold change": "inactive: 0.064"}
{"target": "CNOT6 (UniProt Q9ULM6)", "log2 fold change": "inactive: 0.026"}
{"target": "CPSF3 (UniProt Q9UKF6)", "log2 fold change": "inactive: 0.026"}
{"target": "COLGALT2 (UniProt Q8IYK4)", "log2 fold change": "inactive: 0.03"}
{"target": "COPB1 (UniProt P53618)", "log2 fold change": "inactive: -0.037"}
{"target": "COASY isoform 2 (UniProt Q13057)", "log2 fold change": "inactive: 0.01"}
{"target": "CPNE3 (UniProt O75131)", "log2 fold change": "inactive: -0.069"}
{"target": "COMMD9 (UniProt Q9P000)", "log2 fold change": "inactive: 0.074"}
{"target": "COPG2 (UniProt Q9UBF2)", "log2 fold change": "inactive: 0.022"}
{"target": "CNOT8 (UniProt Q9UFF9)", "log2 fold change": "inactive: -0.014"}
{"target": "COG3 (UniProt Q96JB2)", "log2 fold change": "inactive: 0.019"}
{"target": "CNDP2 (UniProt Q96KP4)", "log2 fold change": "inactive: -0.145"}
{"target": "CNOT2 (UniProt Q9NZN8)", "log2 fold change": "inactive: 0.008"}
{"target": "COX5A (UniProt P20674)", "log2 fold change": "inactive: 0.164"}
{"target": "COL6A5 (UniProt A8TX70)", "log2 fold change": "inactive: -0.545"}
{"target": "CNPY4 (UniProt Q8N129)", "log2 fold change": "inactive: -0.052"}
